This is an account of results in PMC12669712.

Sequences of proteins named here, by UniProt entry; tags and fusion partners are left off.
UniProt P46938: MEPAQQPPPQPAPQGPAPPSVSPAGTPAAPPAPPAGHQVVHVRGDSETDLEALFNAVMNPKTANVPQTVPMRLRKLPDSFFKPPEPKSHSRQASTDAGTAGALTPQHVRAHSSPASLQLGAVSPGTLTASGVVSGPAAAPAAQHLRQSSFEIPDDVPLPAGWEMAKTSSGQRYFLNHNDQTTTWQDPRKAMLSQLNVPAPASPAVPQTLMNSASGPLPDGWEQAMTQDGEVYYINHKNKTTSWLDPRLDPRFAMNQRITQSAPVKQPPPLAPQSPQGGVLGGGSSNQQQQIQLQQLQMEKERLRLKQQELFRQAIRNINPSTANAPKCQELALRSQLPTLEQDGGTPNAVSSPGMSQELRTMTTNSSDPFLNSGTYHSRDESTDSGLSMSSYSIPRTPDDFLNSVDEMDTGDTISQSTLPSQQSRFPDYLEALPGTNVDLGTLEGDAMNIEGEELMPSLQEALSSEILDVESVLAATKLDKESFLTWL

Test [1] has as its target T1, LATS1, endogenous in MEFs (mouse (endogenous in MEFs)) (UniProt Q8BYR2).
T1 sequence: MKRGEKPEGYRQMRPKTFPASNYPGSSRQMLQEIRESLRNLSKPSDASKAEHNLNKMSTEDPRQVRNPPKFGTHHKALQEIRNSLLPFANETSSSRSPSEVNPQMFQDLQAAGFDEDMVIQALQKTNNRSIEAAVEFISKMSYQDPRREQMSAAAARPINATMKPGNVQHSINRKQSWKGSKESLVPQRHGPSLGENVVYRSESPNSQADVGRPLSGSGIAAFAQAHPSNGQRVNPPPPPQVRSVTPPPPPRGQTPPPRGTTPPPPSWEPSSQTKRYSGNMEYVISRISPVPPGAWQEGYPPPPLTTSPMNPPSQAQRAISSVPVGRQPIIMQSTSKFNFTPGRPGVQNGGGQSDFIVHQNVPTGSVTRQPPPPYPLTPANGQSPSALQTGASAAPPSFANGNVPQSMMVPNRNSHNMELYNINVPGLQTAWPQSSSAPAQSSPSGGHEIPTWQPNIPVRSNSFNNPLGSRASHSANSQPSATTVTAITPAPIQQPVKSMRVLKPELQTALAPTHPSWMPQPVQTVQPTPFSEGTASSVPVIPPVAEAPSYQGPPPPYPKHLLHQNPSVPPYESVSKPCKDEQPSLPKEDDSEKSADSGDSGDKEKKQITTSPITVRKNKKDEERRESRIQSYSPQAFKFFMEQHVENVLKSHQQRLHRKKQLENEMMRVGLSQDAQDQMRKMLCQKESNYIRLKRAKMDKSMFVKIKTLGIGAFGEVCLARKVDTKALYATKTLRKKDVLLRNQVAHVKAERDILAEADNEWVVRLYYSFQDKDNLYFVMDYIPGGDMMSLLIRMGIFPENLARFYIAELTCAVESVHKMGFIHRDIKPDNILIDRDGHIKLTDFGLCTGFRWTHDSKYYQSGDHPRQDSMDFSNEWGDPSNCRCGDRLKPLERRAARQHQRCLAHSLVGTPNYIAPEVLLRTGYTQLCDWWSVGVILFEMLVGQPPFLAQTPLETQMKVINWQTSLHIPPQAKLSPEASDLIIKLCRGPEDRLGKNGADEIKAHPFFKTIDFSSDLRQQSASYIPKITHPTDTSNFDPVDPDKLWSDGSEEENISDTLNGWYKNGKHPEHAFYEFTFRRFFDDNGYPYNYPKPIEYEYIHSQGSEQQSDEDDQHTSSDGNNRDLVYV
Description: co-IP; KSR1+/+ MEF lysates in Buffer A; protein A-Sepharose with anti-MST1, anti-LATS1 or anti-YAP antibodies, 3 h at 4 °C; rabbit IgG as control; in Fig. 8 cells serum-starved for 16 h, then EGF or vehicle for 5 min.

Test [2] addresses T2, MST1, endogenous in MEFs (mouse (endogenous in MEFs)) (UniProt Q9JI11).
T2 sequence: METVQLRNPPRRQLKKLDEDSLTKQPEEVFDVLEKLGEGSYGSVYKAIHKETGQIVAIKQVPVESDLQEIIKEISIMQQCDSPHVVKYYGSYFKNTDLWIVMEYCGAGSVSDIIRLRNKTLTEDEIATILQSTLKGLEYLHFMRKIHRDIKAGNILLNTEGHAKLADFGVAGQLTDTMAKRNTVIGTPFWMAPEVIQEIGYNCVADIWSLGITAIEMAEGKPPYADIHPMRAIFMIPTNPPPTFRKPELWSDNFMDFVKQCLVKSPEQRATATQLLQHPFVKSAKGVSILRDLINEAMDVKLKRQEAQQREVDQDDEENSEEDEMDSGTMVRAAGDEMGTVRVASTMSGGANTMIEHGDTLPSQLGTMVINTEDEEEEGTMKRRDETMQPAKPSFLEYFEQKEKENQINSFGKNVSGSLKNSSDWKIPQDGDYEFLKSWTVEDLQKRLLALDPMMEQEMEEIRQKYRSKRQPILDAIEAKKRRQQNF
Described as above.

For test [3], the target named is YAP, endogenous in MEFs (mouse (endogenous in MEFs)) (UniProt P46938). The test is described as above.
Test [4] concerns the target T3, Recombinant LATS1 (Active Motif, #81209) (human) (UniProt O95835).
T3 sequence: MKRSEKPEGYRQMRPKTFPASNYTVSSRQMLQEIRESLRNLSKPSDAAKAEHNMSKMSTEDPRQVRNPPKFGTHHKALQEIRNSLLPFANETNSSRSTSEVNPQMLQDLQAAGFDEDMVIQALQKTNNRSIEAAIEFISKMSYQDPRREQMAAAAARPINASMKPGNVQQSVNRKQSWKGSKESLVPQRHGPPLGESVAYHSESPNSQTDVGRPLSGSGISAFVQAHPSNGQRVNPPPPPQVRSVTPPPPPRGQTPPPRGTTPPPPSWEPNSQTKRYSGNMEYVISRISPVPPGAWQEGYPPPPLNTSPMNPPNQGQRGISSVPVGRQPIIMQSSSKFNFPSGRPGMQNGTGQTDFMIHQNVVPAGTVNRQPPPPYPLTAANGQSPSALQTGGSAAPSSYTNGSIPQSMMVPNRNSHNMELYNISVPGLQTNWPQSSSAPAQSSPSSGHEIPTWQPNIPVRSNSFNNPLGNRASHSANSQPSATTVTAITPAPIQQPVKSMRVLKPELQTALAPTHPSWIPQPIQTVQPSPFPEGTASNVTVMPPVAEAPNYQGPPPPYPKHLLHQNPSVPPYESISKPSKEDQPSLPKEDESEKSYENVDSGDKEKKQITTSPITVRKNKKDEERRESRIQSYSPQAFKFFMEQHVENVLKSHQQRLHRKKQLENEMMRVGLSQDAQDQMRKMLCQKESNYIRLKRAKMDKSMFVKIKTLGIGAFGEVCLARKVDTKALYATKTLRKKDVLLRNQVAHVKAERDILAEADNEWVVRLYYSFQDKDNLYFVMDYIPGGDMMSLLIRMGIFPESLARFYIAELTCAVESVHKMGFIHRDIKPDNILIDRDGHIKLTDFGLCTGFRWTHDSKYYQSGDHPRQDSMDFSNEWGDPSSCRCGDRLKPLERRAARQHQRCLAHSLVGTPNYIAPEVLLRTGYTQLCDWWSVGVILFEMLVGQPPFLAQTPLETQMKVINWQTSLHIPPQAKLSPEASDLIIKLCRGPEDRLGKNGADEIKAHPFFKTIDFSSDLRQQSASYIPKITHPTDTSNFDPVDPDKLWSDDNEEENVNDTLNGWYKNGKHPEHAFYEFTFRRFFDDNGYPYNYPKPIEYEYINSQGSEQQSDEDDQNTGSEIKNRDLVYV
In words: mass photometry; Refeyn OneMP; proteins diluted in PBS to a final concentration of 20 nM; room temperature; both purified.

No constants are given. Whether binding was seen depends on the method and setting. For some of these results: Binding seen in cells or lysates may run through a third protein. Some binding calls cover weakened binding; strength is not graded here.

B1: KSR1 stably overexpressed in KSR1+/+ MEFs (protein, UniProt Q61097 1-873)
chain: MDRAALRAAAMGEKKEGGGGGAAADGGAGAAVSRALQQCGQLQKLIDISIGSLRGLRTKCSVSNDLTQQEIRTLEAKLVKYICKQQQSKLSVTPSDRTAELNSYPRFSDWLYIFNVRPEVVQEIPQELTLDALLEMDEAKAKEMLRRWGASTEECSRLQQALTCLRKVTGLGGEHKMDSGWSSTDARDSSLGPPMDMLSSLGRAGASTQGPRSISVSALPASDSPVPGLSEGLSDSCIPLHTSGRLTPRALHSFITPPTTPQLRRHAKLKPPRTPPPPSRKVFQLLPSFPTLTRSKSHESQLGNRIDDVTPMKFELPHGSPQLVRRDIGLSVTHRFSTKSWLSQVCNVCQKSMIFGVKCKHCRLKCHNKCTKEAPACRITFLPLARLRRTESVPSDINNPVDRAAEPHFGTLPKALTKKEHPPAMNLDSSSNPSSTTSSTPSSPAPFLTSSNPSSATTPPNPSPGQRDSRFSFPDISACSQAAPLSSTADSTRLDDQPKTDVLGVHEAEAEEPEAGKSEAEDDEEDEVDDLPSSRRPWRGPISRKASQTSVYLQEWDIPFEQVELGEPIGQGRWGRVHRGRWHGEVAIRLLEMDGHNQDHLKLFKKEVMNYRQTRHENVVLFMGACMNPPHLAIITSFCKGRTLHSFVRDPKTSLDINKTRQIAQEIIKGMGYLHAKGIVHKDLKSKNVFYDNGKVVITDFGLFGISGVVREERRENQLKLSHDWLCYLAPEIVREMIPGRDEDQLPFSKAADVYAFGTVWYELQARDWPFKHQPAEALIWQIGSGEGVRRVLASVSLGKEVGEILSACWAFDLQERPSFSLLMDMLERLPKLNRRLSHPGHFWKSADINSSKVMPRFERFGLGTLESGNPKM
For the molecule B1, the binding entry in test [1], in test [2] and in test [3] was “binds” in each case.

B2: Recombinant human KSR1 (Abcam, #ab268719) (protein, UniProt Q8IVT5 1-923)
chain: MDRAALRAAAMGEKKEGGGGGDAAAAEGGAGAAASRALQQCGQLQKLIDISIGSLRGLRTKCAVSNDLTQQEIRTLEAKLVRYICKQRQCKLSVAPGERTPELNSYPRFSDWLYTFNVRPEVVQEIPRDLTLDALLEMNEAKVKETLRRCGASGDECGRLQYALTCLRKVTGLGGEHKEDSSWSSLDARRESGSGPSTDTLSAASLPWPPGSSQLGRAGNSAQGPRSISVSALPASDSPTPSFSEGLSDTCIPLHASGRLTPRALHSFITPPTTPQLRRHTKLKPPRTPPPPSRKVFQLLPSFPTLTRSKSHESQLGNRIDDVSSMRFDLSHGSPQMVRRDIGLSVTHRFSTKSWLSQVCHVCQKSMIFGVKCKHCRLKCHNKCTKEAPACRISFLPLTRLRRTESVPSDINNPVDRAAEPHFGTLPKALTKKEHPPAMNHLDSSSNPSSTTSSTPSSPAPFPTSSNPSSATTPPNPSPGQRDSRFNFPAAYFIHHRQQFIFPVPSAGHCWKCLLIAESLKENAFNISAFAHAAPLPEAADGTRLDDQPKADVLEAHEAEAEEPEAGKSEAEDDEDEVDDLPSSRRPWRGPISRKASQTSVYLQEWDIPFEQVELGEPIGQGRWGRVHRGRWHGEVAIRLLEMDGHNQDHLKLFKKEVMNYRQTRHENVVLFMGACMNPPHLAIITSFCKGRTLHSFVRDPKTSLDINKTRQIAQEIIKGMGYLHAKGIVHKDLKSKNVFYDNGKVVITDFGLFGISGVVREGRRENQLKLSHDWLCYLAPEIVREMTPGKDEDQLPFSKAADVYAFGTVWYELQARDWPLKNQAAEASIWQIGSGEGMKRVLTSVSLGKEVSEILSACWAFDLQERPSFSLLMDMLEKLPKLNRRLSHPGHFWKSADINSSKVVPRFERFGLGVLESSNPKM
For the molecule B2, the binding entry in test [4] is on record as “binds”.
